According to PubChem BioAssay AID1347076 (National Center for Advancing Translational Sciences (NCATS), 2019):
Among all 400,000 compounds or so, about 13,000 (3.2%) were called active. The shares of active, inactive and inconclusive entries below differ from those in the screen. Calls come from the whole dose curve; as a rule, active = well fitted cell-killing curve with a large enough effect; inconclusive = small, poorly fitted or top-dose-only effect, or effect the other way; inactive = flat fitted curve, though single readings scatter. Potencies beside an inconclusive call are fits to weak or partial responses and may not hold up.
% is set by controls: 0 for no effect and ±100 for the full control effect; potency is the fitted concentration of half-maximal effect.

Test: qHTS assay for MDR1-selective chemotherapeutics: Primary screen using the drug-selected MDR subline cells KB-V1; note: nearly all actives have a fitted effect of over 60% in size
Details: KB-V1 MDR cells viability, CellTiter-Glo, 72 h; activity change, negative = cytotoxicity: at 46.1 µM (top of the series)
Method in brief: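 KB-V1 MDR subline cells in DMEM (phenol-red free, 10% FBS) exposed to compounds in qHTS concentration series for 72 h at 37 degrees C. Viability read by CellTiter-Glo luminescence; concentration-effect curves fitted after normalization and correction.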
For `COc1cc(NC(=O)COCc2cc(-c3ccc4c(c3)OCO4)on2)cc(OC)c1`, the “activity change, negative = cytotoxicity” value was inactive: -0.586%. In the case of `CCOC(=O)N1CCN(C(=O)c2ccc3c(c2)ncn3C2CCCC2)CC1`, the Potency is reported as inconclusive: 16.4 µM [cytotoxic, partial curve]. In the case of `CN(C)c1ccc(/C=C(\C#N)c2nc(-c3ccc(Cl)c(Cl)c3)cs2)cc1`, the Potency is reported as inconclusive: 16.4 µM [rising, single point]. In the case of `O=C(CN1CCCCC1)N1c2ccccc2Oc2ccccc21`, the “activity change, negative = cytotoxicity” value is reported as inactive: 4.38%. For `CC(Sc1nnc(-c2cccs2)n1C1CC1)C(=O)NCC1CCCO1` (centres undefined), the Potency was inconclusive: 20.6 µM [cytotoxic, partial curve, poor fit]. With `Cc1ccccc1C(=O)Nc1ccnn1C1CCN(Cc2ccc(CO)o2)CC1` the Potency was inconclusive: 29.1 µM [rising, single point]. For `Cc1ccc(NC(=S)NC(=O)c2ccc(-c3ccc(Cl)cc3)o2)c(O)c1`, the Potency was inconclusive: 18.4 µM [cytotoxic, single point]. With `Cn1ncc2c(N3CCC(Cc4ccccc4)CC3)ncnc21` the Potency was active: 4.61 µM. With `Cn1c2ccccc2c2cnn(CC(=O)Nc3ccccc3C(F)(F)F)c(=O)c21` the Potency was inconclusive: 29.1 µM [rising, single point]. In the case of `COc1ccc(NC(=O)CN2CCc3ccccc3C2)cc1OC`, the Potency is reported as inconclusive: 9.2 µM [cytotoxic, partial curve]. With `Cc1ccc(-n2c(=O)c3c(cnn3C)n(Cc3ccccc3F)c2=O)cc1` the “activity change, negative = cytotoxicity” value was inactive: 15.2%. In the case of `COc1ccc(C(=O)Nc2ccccc2C(=O)N/N=C/c2ccncc2)cc1OC`, the Potency is reported as inconclusive: 20.6 µM [cytotoxic, partial curve]. With `CCCCC(=O)N(C)c1c(CC)nc2c(OCC3CCCCC3)cccn12` the Potency was active: 25.9 µM. With `CCOc1ccc(N(C(C)C(=O)Nc2cc(Cl)ccc2OC)S(C)(=O)=O)cc1` (centres undefined) the Potency was inconclusive: 3.26 µM [cytotoxic, partial curve, poor fit]. With `Cc1ccc(N(C(=O)CNC(=O)c2ccco2)C(C(=O)NC2CCCCC2)c2cccnc2)cc1C` (centres undefined) the “activity change, negative = cytotoxicity” value was inactive: -17%. For `CCN(CC)C(=O)c1ccc(Nc2nnc(C)c3ccccc23)cc1`, the Potency was active: 11.6 µM. For `Cc1ccc(Nc2nc(N)c([N+](=O)[O-])c(NCc3ccccc3)n2)cc1`, the Potency was inconclusive: 20.6 µM [cytotoxic, single point]. With `CC(C)C[C@@H](CN1CCCC1CN1C(=S)NC[C@@H]1Cc1ccc(O)cc1)N1C[C@H](Cc2ccccc2)N(CC2CCCCC2)C1=S` (some centres undefined) the Potency was inconclusive: 16.4 µM [cytotoxic, single point]. For `CCN(CC)C(=O)c1sc2c(c1C)c(=O)n(-c1ccc(OC)cc1OC)c(=O)n2CC(=O)c1ccc(Cl)cc1`, the “activity change, negative = cytotoxicity” value was inactive: -8%. For `Cc1csc(N2CCN(c3cc4c(cc3Cl)nc(-c3ccncc3)n4CCCN3CCCC3)CC2)n1`, the activity change, negative = cytotoxicity was inconclusive: 0%. In the case of `CC1CCCCN1S(=O)(=O)c1ccc2[nH]c(=O)cc(C(=O)NCCCN3CCCCCC3)c2c1` (centres undefined), the Potency is reported as inconclusive: 29.1 µM [rising, single point]. For `CCOc1ccc(OCc2ccc(C(=O)NCc3ccncc3)o2)cc1`, the Potency was inconclusive: 29.1 µM [cytotoxic, single point]. In the case of `COc1cc(NC(=O)C2CCCO2)c(OC)cc1NC(=O)c1ccccc1` (centres undefined), the Potency is reported as inconclusive: 16.4 µM [cytotoxic, partial curve, poor fit]. In the case of `CCOC(=O)/C(=N/Nc1ccc(Br)cc1)N1CC(C)OC(C)C1` (centres undefined), the activity change, negative = cytotoxicity is reported as inconclusive: -18.5%. In the case of `COc1ccc2c(c1)c1nc3ccccc3nc1n2CCCN1C(=O)c2ccccc2C1=O`, the activity change, negative = cytotoxicity is reported as inconclusive: -84.4%. With `O=C(OCC(=O)N(CCc1ccccc1)Cc1ccccc1)c1ccccc1O` the “activity change, negative = cytotoxicity” value was inactive: 4.52%. With `CSc1ccc(/C=c2\s/c(=C\C(=O)C(C)(C)C)n(CC(=O)NCCC3=CCCCC3)c2=O)cc1` the “activity change, negative = cytotoxicity” value was inactive: 23.3%. With `CCN(CC)S(=O)(=O)c1ccc(C(=O)N2CC(=O)Nc3ccc(F)cc3C2c2ccccc2)cc1` (centres undefined) the “activity change, negative = cytotoxicity” value was inactive: 6.56%. With `COc1ccc(Cl)cc1NC(=O)C1(c2cccs2)CCOCC1` the Potency was inconclusive: 11.6 µM [cytotoxic, partial curve]. In the case of `CCC[C@H](CN[C@@H](CNC)[C@H](C)O)NCCc1ccc(OC)cc1`, the “activity change, negative = cytotoxicity” value is reported as inactive: 15.1%. For `COC(=O)c1cc(OC)c(OC)cc1NC(=S)N1CCN(c2ccccn2)CC1`, the Potency was inconclusive: 1.64 µM [cytotoxic, full curve]. With `CCCCCCCCCC[n+]1ccc(/C=C/c2c[nH]c3ccccc23)cc1` the Potency was inconclusive: 20.6 µM [cytotoxic, single point]. With `COc1cccc(C(=O)NCC(=O)n2nc(C)cc2C)c1` the Potency was inconclusive: 29.1 µM [rising, single point]. With `Cc1c(C(=O)c2ccc(F)cc2F)c2ccccn2c1CCc1ccccn1` the Potency was inconclusive: 9.2 µM [cytotoxic, partial curve, poor fit]. For `O=C(N=C1SC2CS(=O)(=O)CC2N1Cc1ccc(Cl)cc1)C1CCCO1` (centres undefined), the “activity change, negative = cytotoxicity” value was inactive: 26.4%. For `O=C(C1CCN(S(=O)(=O)c2ccc(Br)s2)CC1)N1CCN(c2ccccc2)CC1`, the Potency was inconclusive: 18.4 µM [cytotoxic, partial curve]. With `CC(C)c1ccc(NC(=O)c2ccc(-c3ccnn3C)c3ccoc23)cc1` the “activity change, negative = cytotoxicity” value was inactive: -8.9%. In the case of `COc1ccc(C(=O)NNC(=S)NC(=O)c2cccnc2)cc1`, the Potency is reported as inconclusive: 16.4 µM [cytotoxic, single point]. With `Cc1cc2cc(CN(Cc3cccs3)C(c3nnnn3C(C)(C)C)C(C)C)c3nnnn3c2cc1C` (centres undefined) the Potency was active: 1.84 µM. For `COc1cc(NC(=O)c2c(C)oc3c2C2=NCCN2C=N3)cc(OC)c1OC`, the Potency was inconclusive: 18.4 µM [rising, single point]. In the case of `CCN=C(NS(=O)(=O)c1ccc(Br)cc1)c1ccc(Cl)cc1`, the Potency is reported as inconclusive: 18.4 µM [cytotoxic, single point]. For `Cc1c(Cl)cccc1NCC(=O)Nc1ccc(Cl)cc1F`, the Potency was inconclusive: 18.4 µM [cytotoxic, partial curve, poor fit]. In the case of `COc1ccc(CCN2C(=O)NC(NS(=O)(=O)c3ccc(NC(C)=O)cc3)(C(F)(F)F)C2=O)cc1OC` (centres undefined), the Potency is reported as “inactive”. For `CCC1CCCCN1CCCNC(=O)c1cc2c(=O)oc3ccc(C)cc3c2s1` (centres undefined), the “activity change, negative = cytotoxicity” value was inactive: -1.24%.
